Reference: paper PMC6422423, “Constitutively active BRS3 is a genuinely orphan GPCR in placental mammals” (PLoS Biology, 2019)
No constants are given. Whether binding was seen depends on the method and setting. For part of these data: Binding calls can cover weak binding; strength is not graded here.

Experiments:
[1] = molecular target: aardvark bombesin receptor subtype-3 (aardvark (Orycteropus afer)); assay: radioligand binding; displacement of 50 pM [125I]-Tyr42-GRP by unlabeled peptide on disaggregated transfected HEK293 cells; 1 h at 21°C; 24.5 mM HEPES pH 7.4, 98 mM NaCl; bound tracer separated by centrifugation; only the binder purified
[2] = molecular target: gastrin-releasing peptide receptor; assay: as above
[3] = molecular target: neuromedin B receptor; assay: radioligand binding; displacement of 50 pM [125I]-Tyr-NMB by unlabeled peptide on disaggregated transfected HEK293 cells; 1 h at 21°C; 24.5 mM HEPES pH 7.4, 98 mM NaCl; bound tracer separated by centrifugation; only the binder purified

Question: For APLQPGGSPALTKIYPRGSHWAVGHLM [gastrin-releasing peptide, unlabeled ligand peptide of the radioligand binding assays], which binding [1] is on record?
Answer: no binding (tested: Ki > 1,000 nM)

Question: And the binding [2]?
Answer: binds

Question: What about the binding [3] of the same binder?
Answer: no binding
